Most values lie at the level of the controls, where differences are scatter.
Legend:
Assay in all cases: normalised response (% of control), CellTox Green; higher = less cell death (100 = DMSO, 0 = benzethonium chloride kill control)
Settings in all cases: incubation time: 72 h
BT-474 = test system: BT-474
Protocol: (§1)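 DSRT, 72 h incubation, CellTox Green / CellTiter-Glo readout. Signal is normalised to DMSO and benzethonium chloride controls. Value is the normalised response at dose 2.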

BT-549 = test system: BT-549
Protocol: as §1

CAL-120 = test system: CAL-120
Protocol: as §1

CAL-148 = test system: CAL-148
Protocol: as §1

CAL-51 = test system: CAL-51
Protocol: as §1

CAL-85-1 = test system: CAL-85-1
Protocol: as §1

DU-4475 = test system: DU-4475
Protocol: as §1

HCC1143 = test system: HCC1143
Protocol: as §1

HCC1599 = test system: HCC1599
Protocol: as §1

HCC1937 = test system: HCC1937
Protocol: as §1

HDQ-P1 = test system: HDQ-P1
Protocol: as §1

Hs578T = test system: Hs578T
Protocol: as §1

MCF-10A = test system: MCF-10A
Protocol: as §1

MDA-MB-231 = test system: MDA-MB-231
Protocol: as §1

MDA-MB-436 = test system: MDA-MB-436
Protocol: as §1

MDA-MB-453 = test system: MDA-MB-453
Protocol: as §1

MDA-MB-468 = test system: MDA-MB-468
Protocol: as §1

MFM-223 = test system: MFM-223
Protocol: as §1

COc1cc(O)c2c(c1)/C=C/C[C@H](O)[C@H](O)C(=O)/C=C\C[C@H](C)OC2=O [(5Z)-7-Oxozeaenol] (10 nM)
normalised response (BT-474): 105% | normalised response (BT-549): 94.7% | normalised response (CAL-120): 97.4% | normalised response (CAL-148): 105% | normalised response (CAL-51): 110% | normalised response (CAL-85-1): 101% | normalised response (DU-4475): 107% | normalised response (HCC1143): 107% | normalised response (HCC1599): 114% | normalised response (HCC1937): 116% | normalised response (HDQ-P1): 114% | normalised response (Hs578T): 104% | normalised response (MCF-10A): 93.8% | normalised response (MDA-MB-231): 95.1% | normalised response (MDA-MB-436): 104% | normalised response (MDA-MB-453): 77.6% | normalised response (MDA-MB-468): 128% | normalised response (MFM-223): 100%

CCCCCOC(=O)Nc1nc(=O)n([C@@H]2O[C@H](C)[C@@H](O)[C@H]2O)cc1F [Capecitabine] (10 nM)
normalised response (BT-474): 100% | normalised response (BT-549): 94.2% | normalised response (CAL-120): 103% | normalised response (CAL-148): 96.3% | normalised response (CAL-51): 101% | normalised response (CAL-85-1): 104% | normalised response (DU-4475): 99% | normalised response (HCC1143): 89.3% | normalised response (HCC1599): 101% | normalised response (HCC1937): 87.1% | normalised response (HDQ-P1): 85.3% | normalised response (Hs578T): 101% | normalised response (MCF-10A): 78.4% | normalised response (MDA-MB-231): 104% | normalised response (MDA-MB-436): 79% | normalised response (MDA-MB-453): 100% | normalised response (MDA-MB-468): 71% | normalised response (MFM-223): 97.4%

COC1=C2C[C@@H](C)C[C@H](OC)[C@H](O)[C@@H](C)/C=C(\C)[C@H](OC(N)=O)[C@@H](OC)/C=C\C=C(/C)C(=O)NC(=CC1=O)C2=O [Geldanamycin] (10 nM)
normalised response (BT-474): 72.1% | normalised response (BT-549): 87.4% | normalised response (CAL-120): 99.2% | normalised response (CAL-148): 94.6% | normalised response (CAL-51): 102% | normalised response (CAL-85-1): 97.6% | normalised response (DU-4475): 111% | normalised response (HCC1143): 104% | normalised response (HCC1599): 114% | normalised response (HCC1937): 101% | normalised response (HDQ-P1): 112% | normalised response (Hs578T): 111% | normalised response (MCF-10A): 112% | normalised response (MDA-MB-231): 92.3% | normalised response (MDA-MB-436): 77% | normalised response (MDA-MB-453): 101% | normalised response (MDA-MB-468): 63.8% | normalised response (MFM-223): 100%

O=C(O)CNC(=O)c1c(O)c2ccccc2n(Cc2ccccc2)c1=O [IOX-2] (50 nM)
normalised response (BT-474): 104% | normalised response (BT-549): 104% | normalised response (CAL-120): 98.6% | normalised response (CAL-148): 86.3% | normalised response (CAL-51): 99.5% | normalised response (CAL-85-1): 96.2% | normalised response (DU-4475): 95.2% | normalised response (HCC1143): 87.3% | normalised response (HCC1599): 99.4% | normalised response (HCC1937): 109% | normalised response (HDQ-P1): 119% | normalised response (Hs578T): 121% | normalised response (MCF-10A): 62.4% | normalised response (MDA-MB-231): 110% | normalised response (MDA-MB-436): 108% | normalised response (MDA-MB-453): 93.2% | normalised response (MDA-MB-468): 101% | normalised response (MFM-223): 105%

COCC1(CO)C(=O)C2CCN1CC2 (centres undefined) [Prima-1 Met] (10 nM)
normalised response (BT-474): 102% | normalised response (BT-549): 96.1% | normalised response (CAL-120): 105% | normalised response (CAL-148): 78% | normalised response (CAL-51): 110% | normalised response (CAL-85-1): 86.6% | normalised response (DU-4475): 112% | normalised response (HCC1143): 116% | normalised response (HCC1599): 120% | normalised response (HCC1937): 104% | normalised response (HDQ-P1): 120% | normalised response (Hs578T): 127% | normalised response (MCF-10A): 94% | normalised response (MDA-MB-231): 95.4% | normalised response (MDA-MB-436): 105% | normalised response (MDA-MB-453): 107% | normalised response (MDA-MB-468): 73.4% | normalised response (MFM-223): 103%

CC(C)n1cnc2c(NCCc3ccc(O)cc3)nc(-c3csc4ccccc34)nc21 [StemRegenin 1] (10 nM)
normalised response (BT-549): 106% | normalised response (CAL-120): 96.5% | normalised response (CAL-148): 107% | normalised response (CAL-51): 99.4% | normalised response (CAL-85-1): 101% | normalised response (DU-4475): 97.3% | normalised response (HCC1143): 106% | normalised response (HCC1599): 105% | normalised response (HCC1937): 60.1% | normalised response (HDQ-P1): 119% | normalised response (Hs578T): 118% | normalised response (MCF-10A): 99.9% | normalised response (MDA-MB-231): 122% | normalised response (MDA-MB-436): 94.6% | normalised response (MDA-MB-453): 101% | normalised response (MDA-MB-468): 105% | normalised response (MFM-223): 97.7%
